Assay results as given in paper PMC4457826.
Results are given in words; binding and its absence hold for the method and conditions named. For some assays here: In cells and extracts the contact can be indirect. Some results given as binding are weak or reduced against the parent protein; the word gives no strength.

Chains of the proteins cited; added tags and fusions are not shown. Lines headed by an entry give the natural chain unless they say otherwise; changes in a name come on top. A line that says so, or that is headed by a name, gives the form on record, which may keep a tag or linker.
UniProt Q93009: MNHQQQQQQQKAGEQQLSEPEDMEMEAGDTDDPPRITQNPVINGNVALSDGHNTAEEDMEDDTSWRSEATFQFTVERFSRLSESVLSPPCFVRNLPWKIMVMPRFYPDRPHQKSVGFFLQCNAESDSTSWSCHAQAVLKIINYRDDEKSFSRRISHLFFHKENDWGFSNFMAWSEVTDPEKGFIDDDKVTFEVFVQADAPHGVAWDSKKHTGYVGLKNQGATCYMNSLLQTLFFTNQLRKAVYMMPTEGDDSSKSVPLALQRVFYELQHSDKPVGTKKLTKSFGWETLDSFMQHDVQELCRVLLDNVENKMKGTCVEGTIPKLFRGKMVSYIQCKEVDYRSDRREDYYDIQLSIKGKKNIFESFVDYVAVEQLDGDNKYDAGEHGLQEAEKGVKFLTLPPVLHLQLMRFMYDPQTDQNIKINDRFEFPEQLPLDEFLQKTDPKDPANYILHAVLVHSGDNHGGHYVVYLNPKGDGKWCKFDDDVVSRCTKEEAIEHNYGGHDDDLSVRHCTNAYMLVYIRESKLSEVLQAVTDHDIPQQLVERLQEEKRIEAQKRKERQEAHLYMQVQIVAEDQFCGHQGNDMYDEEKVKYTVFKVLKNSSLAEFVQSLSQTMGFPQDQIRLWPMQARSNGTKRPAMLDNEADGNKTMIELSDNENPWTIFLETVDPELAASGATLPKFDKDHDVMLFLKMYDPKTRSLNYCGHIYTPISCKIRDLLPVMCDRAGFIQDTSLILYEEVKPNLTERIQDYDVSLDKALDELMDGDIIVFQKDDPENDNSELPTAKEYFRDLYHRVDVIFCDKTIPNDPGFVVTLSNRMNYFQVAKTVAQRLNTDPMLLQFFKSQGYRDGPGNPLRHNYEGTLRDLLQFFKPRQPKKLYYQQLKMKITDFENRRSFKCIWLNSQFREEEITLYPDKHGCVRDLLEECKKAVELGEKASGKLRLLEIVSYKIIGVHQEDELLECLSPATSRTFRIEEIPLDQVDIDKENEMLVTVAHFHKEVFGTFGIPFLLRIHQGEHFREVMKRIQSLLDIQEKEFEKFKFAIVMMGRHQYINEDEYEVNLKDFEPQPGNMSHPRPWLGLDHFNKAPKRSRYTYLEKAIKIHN
USP7 Ubl123 D762A (Q93009, form named): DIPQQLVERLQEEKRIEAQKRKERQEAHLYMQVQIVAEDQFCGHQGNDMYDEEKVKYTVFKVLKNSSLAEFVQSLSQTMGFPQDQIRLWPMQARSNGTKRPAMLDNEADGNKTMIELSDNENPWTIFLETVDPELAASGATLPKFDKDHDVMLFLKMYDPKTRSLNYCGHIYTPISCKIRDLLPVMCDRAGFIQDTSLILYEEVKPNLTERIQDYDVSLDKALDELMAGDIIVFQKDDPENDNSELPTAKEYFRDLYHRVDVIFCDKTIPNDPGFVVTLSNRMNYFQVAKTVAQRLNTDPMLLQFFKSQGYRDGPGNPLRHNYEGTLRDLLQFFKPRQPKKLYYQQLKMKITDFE
USP7 Ubl123 D762A/D764A (Q93009, form named): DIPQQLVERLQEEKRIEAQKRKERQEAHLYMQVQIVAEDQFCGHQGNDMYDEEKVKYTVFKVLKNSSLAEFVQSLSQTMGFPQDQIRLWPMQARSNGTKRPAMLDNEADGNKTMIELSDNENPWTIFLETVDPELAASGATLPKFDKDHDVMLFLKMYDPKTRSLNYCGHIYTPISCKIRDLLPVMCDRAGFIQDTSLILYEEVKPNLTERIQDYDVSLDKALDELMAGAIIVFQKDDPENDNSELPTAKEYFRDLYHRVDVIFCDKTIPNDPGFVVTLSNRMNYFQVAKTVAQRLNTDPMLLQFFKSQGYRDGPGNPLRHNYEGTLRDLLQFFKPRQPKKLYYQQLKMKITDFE
USP7 Ubl123 D764A (Q93009, form named): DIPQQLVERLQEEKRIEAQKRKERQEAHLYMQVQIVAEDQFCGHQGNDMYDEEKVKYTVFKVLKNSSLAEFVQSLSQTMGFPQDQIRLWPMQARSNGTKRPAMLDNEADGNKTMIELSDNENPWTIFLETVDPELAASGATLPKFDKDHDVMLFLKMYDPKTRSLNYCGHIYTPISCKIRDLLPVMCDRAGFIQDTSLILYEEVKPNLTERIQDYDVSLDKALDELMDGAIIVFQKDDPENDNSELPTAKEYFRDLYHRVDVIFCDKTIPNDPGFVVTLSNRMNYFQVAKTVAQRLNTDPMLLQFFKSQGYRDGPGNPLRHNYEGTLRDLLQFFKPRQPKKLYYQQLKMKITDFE
USP7 Ubl123 E759A (Q93009, form named): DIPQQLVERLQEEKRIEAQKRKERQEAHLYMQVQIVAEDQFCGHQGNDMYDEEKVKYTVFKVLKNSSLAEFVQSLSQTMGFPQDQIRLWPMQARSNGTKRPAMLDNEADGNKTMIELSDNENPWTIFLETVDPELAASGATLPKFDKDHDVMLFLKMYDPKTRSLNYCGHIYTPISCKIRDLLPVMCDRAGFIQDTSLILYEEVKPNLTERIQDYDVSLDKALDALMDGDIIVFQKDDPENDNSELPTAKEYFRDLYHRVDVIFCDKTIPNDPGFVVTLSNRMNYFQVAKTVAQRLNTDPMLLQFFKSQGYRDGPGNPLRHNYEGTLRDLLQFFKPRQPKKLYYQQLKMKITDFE
USP7-CTD D762A (Q93009, form named): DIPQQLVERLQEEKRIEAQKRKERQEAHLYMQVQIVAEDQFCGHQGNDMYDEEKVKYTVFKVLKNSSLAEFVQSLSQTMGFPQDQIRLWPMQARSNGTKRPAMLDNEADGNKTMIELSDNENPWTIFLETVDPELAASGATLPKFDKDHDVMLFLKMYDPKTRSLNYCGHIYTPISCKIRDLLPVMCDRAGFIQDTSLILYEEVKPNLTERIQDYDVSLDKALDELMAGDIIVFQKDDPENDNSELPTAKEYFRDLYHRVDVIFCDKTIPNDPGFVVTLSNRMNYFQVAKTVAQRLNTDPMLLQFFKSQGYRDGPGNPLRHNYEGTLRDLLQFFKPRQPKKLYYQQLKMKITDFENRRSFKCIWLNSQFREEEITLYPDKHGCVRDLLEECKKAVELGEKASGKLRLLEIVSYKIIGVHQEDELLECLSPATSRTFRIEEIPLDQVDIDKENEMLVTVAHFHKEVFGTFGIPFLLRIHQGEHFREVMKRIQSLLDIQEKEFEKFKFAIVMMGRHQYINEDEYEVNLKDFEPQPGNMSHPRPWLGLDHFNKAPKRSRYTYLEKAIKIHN
USP7-CTD D762A/D764A (Q93009, form named): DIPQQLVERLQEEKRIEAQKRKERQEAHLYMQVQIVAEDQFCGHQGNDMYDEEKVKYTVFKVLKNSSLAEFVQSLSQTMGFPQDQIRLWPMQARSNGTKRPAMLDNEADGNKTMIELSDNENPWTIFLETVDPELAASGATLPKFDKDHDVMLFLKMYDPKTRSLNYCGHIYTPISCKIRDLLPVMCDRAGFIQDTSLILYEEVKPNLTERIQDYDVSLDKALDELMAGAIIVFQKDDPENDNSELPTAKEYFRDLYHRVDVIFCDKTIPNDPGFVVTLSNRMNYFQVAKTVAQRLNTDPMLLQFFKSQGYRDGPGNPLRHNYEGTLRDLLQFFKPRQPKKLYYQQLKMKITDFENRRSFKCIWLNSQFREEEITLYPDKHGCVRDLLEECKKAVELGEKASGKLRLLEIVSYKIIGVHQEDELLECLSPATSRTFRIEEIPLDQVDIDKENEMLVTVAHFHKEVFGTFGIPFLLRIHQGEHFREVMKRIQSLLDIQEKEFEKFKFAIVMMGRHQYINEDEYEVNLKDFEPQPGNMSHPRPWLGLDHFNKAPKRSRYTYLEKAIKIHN
USP7-CTD D764A (Q93009, form named): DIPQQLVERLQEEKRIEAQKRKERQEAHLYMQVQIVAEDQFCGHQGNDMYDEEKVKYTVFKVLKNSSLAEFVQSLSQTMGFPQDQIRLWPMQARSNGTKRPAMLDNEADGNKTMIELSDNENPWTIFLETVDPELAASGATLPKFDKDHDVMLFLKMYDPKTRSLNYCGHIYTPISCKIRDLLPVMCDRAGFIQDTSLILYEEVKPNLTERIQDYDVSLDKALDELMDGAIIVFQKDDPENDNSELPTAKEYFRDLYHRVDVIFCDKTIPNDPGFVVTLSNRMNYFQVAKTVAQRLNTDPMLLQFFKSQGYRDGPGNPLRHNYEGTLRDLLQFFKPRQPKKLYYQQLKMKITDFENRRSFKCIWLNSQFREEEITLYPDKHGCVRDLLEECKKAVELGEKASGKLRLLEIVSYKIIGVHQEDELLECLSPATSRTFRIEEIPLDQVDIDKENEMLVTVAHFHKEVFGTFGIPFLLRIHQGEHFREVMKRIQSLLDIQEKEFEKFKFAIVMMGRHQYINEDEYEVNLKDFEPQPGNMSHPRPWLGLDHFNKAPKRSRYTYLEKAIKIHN
USP7-CTD E759A (Q93009, form named): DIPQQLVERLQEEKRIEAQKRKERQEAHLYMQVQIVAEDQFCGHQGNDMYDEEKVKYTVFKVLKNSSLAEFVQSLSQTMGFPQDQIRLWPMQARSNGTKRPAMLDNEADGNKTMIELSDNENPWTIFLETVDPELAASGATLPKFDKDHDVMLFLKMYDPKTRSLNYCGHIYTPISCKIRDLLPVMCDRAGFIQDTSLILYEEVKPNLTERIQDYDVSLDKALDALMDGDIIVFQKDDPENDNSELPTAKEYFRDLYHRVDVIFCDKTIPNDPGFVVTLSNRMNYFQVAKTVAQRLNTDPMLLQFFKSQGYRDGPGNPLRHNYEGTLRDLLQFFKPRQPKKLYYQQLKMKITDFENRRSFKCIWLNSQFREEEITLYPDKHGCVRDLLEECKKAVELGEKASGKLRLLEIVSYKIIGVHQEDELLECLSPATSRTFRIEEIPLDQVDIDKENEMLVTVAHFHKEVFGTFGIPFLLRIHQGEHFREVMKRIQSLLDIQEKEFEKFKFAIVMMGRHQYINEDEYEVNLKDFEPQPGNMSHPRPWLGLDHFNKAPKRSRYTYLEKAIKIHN
UniProt P49915: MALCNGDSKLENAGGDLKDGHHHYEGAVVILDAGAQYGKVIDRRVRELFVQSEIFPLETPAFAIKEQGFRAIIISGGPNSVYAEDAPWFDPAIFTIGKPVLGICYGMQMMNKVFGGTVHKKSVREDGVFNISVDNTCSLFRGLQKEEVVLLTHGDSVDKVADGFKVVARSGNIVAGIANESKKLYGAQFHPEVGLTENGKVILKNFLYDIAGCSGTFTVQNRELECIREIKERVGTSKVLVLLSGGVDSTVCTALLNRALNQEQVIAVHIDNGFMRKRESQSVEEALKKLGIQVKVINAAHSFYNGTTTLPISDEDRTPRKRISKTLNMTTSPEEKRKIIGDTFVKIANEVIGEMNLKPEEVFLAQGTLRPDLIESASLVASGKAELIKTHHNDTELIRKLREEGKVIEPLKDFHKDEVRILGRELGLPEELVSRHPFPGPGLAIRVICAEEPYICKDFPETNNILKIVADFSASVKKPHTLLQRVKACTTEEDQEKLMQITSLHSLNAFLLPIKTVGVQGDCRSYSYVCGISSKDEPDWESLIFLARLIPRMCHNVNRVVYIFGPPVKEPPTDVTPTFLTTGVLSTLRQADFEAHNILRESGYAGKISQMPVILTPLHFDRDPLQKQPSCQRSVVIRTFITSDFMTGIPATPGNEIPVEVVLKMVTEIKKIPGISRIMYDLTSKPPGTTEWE

Legend:
[1] = target: GST-ICP0 615-629 (herpes simplex virus 1 (HSV-1)); assay: pull-down; GST pull-down: 250 μg USP7 protein with 250 μg GST fusion in 50 mM Tris pH 8.0, 100 mM NaCl, 5 mM DTT, 5% glycerol, on glutathione-sepharose overnight at 4°C; eluted with 30 mM reduced glutathione; Coomassie stained gel; both purified
[2] = target: myc-tagged WT USP7 (human) (UniProt Q93009); assay: co-IP; 293T cells transfected with myc-USP7 (with or without ICP0); RIPA lysate, anti-myc antibody and protein A/G agarose; Western blot for ICP0, GMPS or UHRF1

Row | Substance | binding [1] | binding [2]
1 | USP7 Ubl45 (886-1102) (from UniProt Q93009 886-1102) (domain or fragment) | no binding (tested: 250 μg of each protein) | –
2 | USP7 Ubl123 D762A (from UniProt Q93009 535-889) (domain or fragment) | no binding (tested: 250 μg of each protein) | –
3 | USP7 Ubl123 D762A/D764A (from UniProt Q93009 535-889) (domain or fragment) | no binding (tested: 250 μg of each protein) | –
4 | USP7 Ubl123 D764A (from UniProt Q93009 535-889) (domain or fragment) | no binding (tested: 250 μg of each protein) | –
5 | USP7 Ubl123 E759A (from UniProt Q93009 535-889) (domain or fragment) | no binding (tested: 250 μg of each protein) | –
6 | USP7 Ubl345 (776-1102) (from UniProt Q93009 776-1102) (domain or fragment) | no binding (tested: 250 μg of each protein) | –
7 | USP7-CTD D762A (from UniProt Q93009 535-1102) (domain or fragment) | no binding (tested: 250 μg of each protein) | –
8 | USP7-CTD D762A/D764A (from UniProt Q93009 535-1102) (domain or fragment) | no binding (tested: 250 μg of each protein) | –
9 | USP7-CTD D764A (from UniProt Q93009 535-1102) (domain or fragment) | no binding (tested: 250 μg of each protein) | –
10 | USP7-CTD E759A (from UniProt Q93009 535-1102) (domain or fragment) | no binding (tested: 250 μg of each protein) | –
11 | endogenous GMPS (from UniProt P49915 1-693) | – | binds
